# Data as given in PubChem BioAssay AID1259254 (NCATS, 2017)
# Screen: 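Finding genes that stop cells copying their DNA twice in one cycle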 (primary screen)
# System: human HCT116 colorectal cancer cells
# Reagents: single siRNA against human genes
# Time to read-out: 3 days
# Detection: 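Nuclei stained with Hoechst and imaged; cell-cycle phase assigned by DNA content; G2 share scaled per plate, non-targeting siRNA 0%, GMNN siRNA 100%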
# Scale: G2 robust z-score and G2 cells, % of GMNN control: higher = more G2 cells, more excess DNA replication; raw share of cells in G2: higher = larger share of cells with G2 DNA content
# Rule for the call: 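Active siRNAs have a G2 robust z of 5 or more median absolute deviations over the median, which in these data means about 38% or higher of GMNN control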
# In all, the deposit lists about 59,000 reagents; below is a part drawn at random. Of all reagents, about 1,550 (2.6%) got an active call. 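G2 share is only a proxy for re-replication; each gene was hit by three separate siRNAs, and active genes were retested.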 Raw values are not corrected between plates. Entries without a mark were called inactive. The numbers tell different reagents against one gene apart. The record does not give: the amount of reagent.
Gene,siRNA no.,G2 robust z-score,"G2 cells, % of GMNN control",raw share of cells in G2 (%)
IDH2 (isocitrate dehydrogenase (NADP(+)) 2),1,-0.588,-1.17,5.24
IDH2 (isocitrate dehydrogenase (NADP(+)) 2),2,-0.327,0.664,4.44
IDH2 (isocitrate dehydrogenase (NADP(+)) 2),3,0.449,6.13,7.27
GNG7 (G protein subunit gamma 7),1,-0.408,0.0959,3.69
GNG7 (G protein subunit gamma 7),2,0.405,5.81,7.47
GNG7 (G protein subunit gamma 7),3,0.535,6.73,7.68
XRN2 (5'-3' exoribonuclease 2),1,-0.529,-0.755,3.61
XRN2 (5'-3' exoribonuclease 2),2,-1.54,-7.87,1.52
XRN2 (5'-3' exoribonuclease 2),3,-0.00983,2.9,7.53
KRABD2 (KRAB domain containing 2),1,1.26,11.9,8.85
KRABD2 (KRAB domain containing 2),2,-0.138,2,3.93
KRABD2 (KRAB domain containing 2),3,-0.945,-3.68,0.744
LOC400099 (retired record),1,-0.652,-1.62,4.12
LOC400099 (retired record),2,-0.583,-1.13,3.4
LOC400099 (retired record),3,0.371,5.58,5.73
OR2B2 (olfactory receptor family 2 subfamily B member 2),1,-1.35,-6.5,1.94
OR2B2 (olfactory receptor family 2 subfamily B member 2),2,-0.0827,2.39,4.16
OR2B2 (olfactory receptor family 2 subfamily B member 2),3,0.244,4.68,3.83
"CDON (cell adhesion associated, oncogene regulated)",1,-0.898,-3.35,2.51
"CDON (cell adhesion associated, oncogene regulated)",2,0.643,7.49,9.35
"CDON (cell adhesion associated, oncogene regulated)",3,1.59,14.2,9.48
"MUC4 (mucin 4, cell surface associated)",1,3.06,24.5,15.2
"MUC4 (mucin 4, cell surface associated)",2,-0.645,-1.57,4.75
"MUC4 (mucin 4, cell surface associated)",3,-0.406,0.109,3.23
XKRX (XK related X-linked),1,0.31,5.15,5.68
XKRX (XK related X-linked),2,-0.96,-3.79,2.01
XKRX (XK related X-linked),3,-0.711,-2.04,3.95
GADD45A (growth arrest and DNA damage inducible alpha),1,5.37 (active),40.8,19.5
GADD45A (growth arrest and DNA damage inducible alpha),2,-0.275,1.04,5.79
GADD45A (growth arrest and DNA damage inducible alpha),3,0.847,8.93,7.36

A few values from the entries so far:
For “G2 robust z-score”, MUC4 (mucin 4, cell surface associated) #1 reads 3.06
Under “G2 cells, % of GMNN control”, IDH2 (isocitrate dehydrogenase (NADP(+)) 2) #3 shows 6.13
